In US20220356256A1:
No constants are given. Whether binding was seen depends on the method and setting. Some binding calls cover weakened binding; strength is not graded here.

The chains behind the UniProt entries cited, without tags or fusion partners. Residues count along the entry.
UniProt Q9ULV1, residues 40-161: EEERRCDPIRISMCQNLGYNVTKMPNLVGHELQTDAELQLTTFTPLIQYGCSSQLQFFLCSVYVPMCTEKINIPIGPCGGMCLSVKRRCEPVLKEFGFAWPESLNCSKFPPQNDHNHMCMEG

Target: FZD4 CRD region as a GPI linked domain with a myc tag, stably expressed on CHO cells (UniProt Q9ULV1)
Experiment: IF staining, CHO-FZD4 cells

B1: Fab 5017 (Fab, V domains shown)
VH: EVQLVESGGGLVQPGGSLRLSCAASGFNLYYTDMHWVRQAPGKGLEWVASISLFFGYVSYADSVKGRFTISADTSKNTAYLQMNSLRAEDTAVYYCARYLAMDYWGQGTLVTVSS
VL: DIQMTQSPSSLSASVGDRVTITCRASQSVSSAVAWYQQKPGKAPKLLIYSASSLYSGVPSRFSGSRSGTDFTLTISSLQPEDFATYYCQQAAYHWPPLFTFGQGTKVEIKR
  binding: binds
